Results are given in words; binding and its absence hold for the method and conditions named. In cells and extracts the contact can be indirect. Some binding calls cover weakened binding; strength is not graded here.
Biological target: T1, Foxp3 (mouse (endogenous in SCp2)) (UniProt Q99JB6)
T1 sequence: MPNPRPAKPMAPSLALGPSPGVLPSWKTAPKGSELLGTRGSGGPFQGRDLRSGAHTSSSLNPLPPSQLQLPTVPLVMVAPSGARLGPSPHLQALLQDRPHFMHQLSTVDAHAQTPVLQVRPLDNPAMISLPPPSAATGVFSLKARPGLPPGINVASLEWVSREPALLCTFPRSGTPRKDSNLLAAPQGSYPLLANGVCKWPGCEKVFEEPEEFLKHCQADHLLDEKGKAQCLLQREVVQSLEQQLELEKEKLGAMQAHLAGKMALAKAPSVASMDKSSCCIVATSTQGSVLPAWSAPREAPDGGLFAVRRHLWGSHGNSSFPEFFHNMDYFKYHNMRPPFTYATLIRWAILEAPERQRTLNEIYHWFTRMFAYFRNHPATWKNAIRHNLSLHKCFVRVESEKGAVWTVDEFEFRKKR
Test: co-IP; SCp2 lysate pre-cleared with A/G plus Agarose, incubated with or without anti-Foxp3 antibody (SC-28705) and Agarose at 4°C; precipitate washed with PBS and blotted with anti-Runx1 antibody

By UniProt entry, the sequences of proteins in these tests, tags left out.
UniProt Q03347: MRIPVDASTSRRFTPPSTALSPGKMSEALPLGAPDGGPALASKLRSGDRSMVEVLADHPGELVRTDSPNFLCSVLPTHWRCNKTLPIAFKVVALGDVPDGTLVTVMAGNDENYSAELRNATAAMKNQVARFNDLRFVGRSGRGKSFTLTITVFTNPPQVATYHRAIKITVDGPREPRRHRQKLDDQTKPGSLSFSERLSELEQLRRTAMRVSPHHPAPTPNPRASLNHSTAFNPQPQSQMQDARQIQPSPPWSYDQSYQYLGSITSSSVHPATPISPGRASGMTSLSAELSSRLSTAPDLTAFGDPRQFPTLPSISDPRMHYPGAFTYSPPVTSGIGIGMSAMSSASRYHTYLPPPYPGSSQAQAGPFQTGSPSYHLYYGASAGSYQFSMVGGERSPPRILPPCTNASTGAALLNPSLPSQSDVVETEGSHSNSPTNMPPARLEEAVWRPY

Runx1 (from UniProt Q03347 1-451) was tested, and the binding was “binds”.
